Laboratory results taken from article PMC8630071, “The NUCKS1-SKP2-p21/p27 axis controls S phase entry”.
The exact form of at least one protein or probe is not confirmed. For some of these results: Negatives hold for the conditions tested. For some of these results: At least one verdict was read from the data and is not stated in words by the source. For some of these results: The comparison behind a weaker result is the experiment's own reference, which may not be listed here. For some of these results: Results from cells or extracts need not show a direct contact. For some of these results: Tags and fusion partners may be left off the protein sequences shown.

Assays:
[1] = molecular target: NUCKS1, intact phosphorylated (UniProt Q9H1E3); test: competition EMSA; conditions: 100x unlabelled competitor, 20 mM Tris-HCl pH 7.5, 100 mM KCl, 0.2% NP-40, 20% glycerol, 2 mM DTT, 50 ng (pure protein) or 1 ug (extract) salmon sperm DNA, 25 nM probe, 15 min at 37 C, recombinant protein, protein details: His6
[2] = molecular target: T1, NUCKS1 in U2OS nuclear extract (UniProt Q9H1E3); test: EMSA; conditions: WT U2OS nuclear extract shows much higher affinity than NUCKS1-KO extract, 1 ug salmon sperm DNA; 20 mM Tris-HCl pH 7.5, 100 mM KCl, 0.2% NP-40, 20% glycerol, 2 mM DTT, 50 ng (pure protein) or 1 ug (extract) salmon sperm DNA, 25 nM probe, 15 min at 37 C; protein in an extract; label: IRDye-800
T1 sequence (looked up, limits assumed): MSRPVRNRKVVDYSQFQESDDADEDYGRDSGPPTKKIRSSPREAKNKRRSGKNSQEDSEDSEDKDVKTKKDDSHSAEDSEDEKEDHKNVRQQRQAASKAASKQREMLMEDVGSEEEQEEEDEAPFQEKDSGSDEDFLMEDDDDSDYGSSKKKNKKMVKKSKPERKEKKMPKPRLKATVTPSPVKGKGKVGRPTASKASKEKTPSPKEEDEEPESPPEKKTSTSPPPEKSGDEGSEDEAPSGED

[3] = molecular target: NUCKS1, intact phosphorylated (UniProt Q9H1E3); test: EMSA; conditions: phosphorylated, 10.24-2500 nM protein, 25 nM probe, low affinity, 20 mM Tris-HCl pH 7.5, 100 mM KCl, 0.2% NP-40, 20% glycerol, 2 mM DTT, 50 ng (pure protein) or 1 ug (extract) salmon sperm DNA, 15 min at 37 C, recombinant protein, protein details: His6, label: IRDye-800

| Sequence | binding result [1] | binding result [2] | binding result [3] |
| --- | --- | --- | --- |
| GCCGACCAGTCCCGCTCCCGCGGGGGGTTGTGGGTATCTCGAAAAAAAATAAAGCTGCA (double strand) | no binding |  |  |
| GCCGACCAGTCCCGCTCCCGCGGGGGGTTGTGGGTATCTCGAAGGCGGGTAAAGCTGCA (double strand) [SKP2 promoter WT probe, unlabelled competitor] | binds |  |  |
| GCCGACCAGTCCCGCTCCCGCGGGGGGTTGTGGGTATCTCGAAGGCGGGTAAAGCTGCA (double strand) [SKP2 promoter WT probe] |  | binds | binds more weakly |
